Laboratory results published in PMC7862700.
This is one part of the list. The exact form of the protein is not confirmed.

target: T1, ETS1 (UniProt P14921); experiment: DAPPL (digital affinity profiling via proximity ligation, sequencing); conditions: 10 mM Tris-HCl pH 7.5, 50 mM NaCl, 1 mM DTT, 4% glycerol, room temperature, 30 min; GST-TFs on glutathione beads, 16-mer random dsDNA library, 0.1% …; high values mean tight binding; double strand, one strand shown; scale: fold enrichment (6-mer frequency, TF over GST control)
T1 sequence: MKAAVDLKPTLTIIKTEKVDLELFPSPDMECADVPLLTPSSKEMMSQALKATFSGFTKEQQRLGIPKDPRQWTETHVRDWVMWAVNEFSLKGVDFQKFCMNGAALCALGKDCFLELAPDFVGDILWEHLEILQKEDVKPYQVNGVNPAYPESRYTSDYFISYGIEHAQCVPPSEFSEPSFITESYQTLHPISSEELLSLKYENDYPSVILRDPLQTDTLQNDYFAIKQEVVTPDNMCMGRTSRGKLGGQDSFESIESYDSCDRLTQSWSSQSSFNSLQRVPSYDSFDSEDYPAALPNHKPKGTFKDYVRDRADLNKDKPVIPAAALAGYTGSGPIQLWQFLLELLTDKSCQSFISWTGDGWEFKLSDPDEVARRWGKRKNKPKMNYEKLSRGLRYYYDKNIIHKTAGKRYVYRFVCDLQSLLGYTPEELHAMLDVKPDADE

Sequence	binding signal
TTAACT	1.26
GCTAAT	1.12
TAGCAC	1.1
GTTTCC	2.71
CCCTCC	1.32
TGTAAA	1.26
TCGCAA	1.12
GATGAT	1.32
CCTGAT	1.39
AAGCTC	1.22
CGACTA	1.26
CCCACA	1.08
TAAGGT	1.12
TTTTCA	1.18
CGCCGA	1.24
AATTAG	1.15
ACATCT	1.29
ATATGT	1.14
CCGATT	1.33
TATTCT	1.28

Sequence	binding signal
ATGATT	1.2
TCCCAA	1.17
TTCCCT	1.72
CAGCTT	1.21
ATTTAT	1.39
ACTTAC	1.2
TTAGTT	1.35
ATCACT	1.31
TCTTGA	1.23
ATACAA	1.13
TCTACT	1.4
TTCATA	1.19
ATACGT	1.12
AGTTCC	2.14
TTAAGC	1.18
TCTCCC	1.68
GCTTCG	1.4
ACATCA	1.18
GGGCTA	1.13
TCACAC	1.36

Given with bars between the fields: part of the list above
Sequence | binding signal
TCCCAA | 1.17
TTCCCT | 1.72
CAGCTT | 1.21
ATTTAT | 1.39
ACTTAC | 1.2
TTAGTT | 1.35
ATCACT | 1.31
TCTTGA | 1.23
ATACAA | 1.13
TCTACT | 1.4
